Compound in this experiment: Cc1nc(Nc2ncc(C(=O)Nc3c(C)cccc3Cl)s2)cc(N2CCN(CCO)CC2)n1 [dasatinib]
Briefly: log2 fold change of tryptic peptide abundance, ligand vs vehicle (limited proteolysis) (log2 ratio); higher = more trypsin-susceptible (destabilized). As to conditions: ligand concentration: 5 uM; sample: K562 cleared lysate.

Sequences of proteins named here, by UniProt entry; tags and fusion partners are left off. A change or cut given only in a name is not applied to a line headed by its entry.
UniProt Q9NRJ4: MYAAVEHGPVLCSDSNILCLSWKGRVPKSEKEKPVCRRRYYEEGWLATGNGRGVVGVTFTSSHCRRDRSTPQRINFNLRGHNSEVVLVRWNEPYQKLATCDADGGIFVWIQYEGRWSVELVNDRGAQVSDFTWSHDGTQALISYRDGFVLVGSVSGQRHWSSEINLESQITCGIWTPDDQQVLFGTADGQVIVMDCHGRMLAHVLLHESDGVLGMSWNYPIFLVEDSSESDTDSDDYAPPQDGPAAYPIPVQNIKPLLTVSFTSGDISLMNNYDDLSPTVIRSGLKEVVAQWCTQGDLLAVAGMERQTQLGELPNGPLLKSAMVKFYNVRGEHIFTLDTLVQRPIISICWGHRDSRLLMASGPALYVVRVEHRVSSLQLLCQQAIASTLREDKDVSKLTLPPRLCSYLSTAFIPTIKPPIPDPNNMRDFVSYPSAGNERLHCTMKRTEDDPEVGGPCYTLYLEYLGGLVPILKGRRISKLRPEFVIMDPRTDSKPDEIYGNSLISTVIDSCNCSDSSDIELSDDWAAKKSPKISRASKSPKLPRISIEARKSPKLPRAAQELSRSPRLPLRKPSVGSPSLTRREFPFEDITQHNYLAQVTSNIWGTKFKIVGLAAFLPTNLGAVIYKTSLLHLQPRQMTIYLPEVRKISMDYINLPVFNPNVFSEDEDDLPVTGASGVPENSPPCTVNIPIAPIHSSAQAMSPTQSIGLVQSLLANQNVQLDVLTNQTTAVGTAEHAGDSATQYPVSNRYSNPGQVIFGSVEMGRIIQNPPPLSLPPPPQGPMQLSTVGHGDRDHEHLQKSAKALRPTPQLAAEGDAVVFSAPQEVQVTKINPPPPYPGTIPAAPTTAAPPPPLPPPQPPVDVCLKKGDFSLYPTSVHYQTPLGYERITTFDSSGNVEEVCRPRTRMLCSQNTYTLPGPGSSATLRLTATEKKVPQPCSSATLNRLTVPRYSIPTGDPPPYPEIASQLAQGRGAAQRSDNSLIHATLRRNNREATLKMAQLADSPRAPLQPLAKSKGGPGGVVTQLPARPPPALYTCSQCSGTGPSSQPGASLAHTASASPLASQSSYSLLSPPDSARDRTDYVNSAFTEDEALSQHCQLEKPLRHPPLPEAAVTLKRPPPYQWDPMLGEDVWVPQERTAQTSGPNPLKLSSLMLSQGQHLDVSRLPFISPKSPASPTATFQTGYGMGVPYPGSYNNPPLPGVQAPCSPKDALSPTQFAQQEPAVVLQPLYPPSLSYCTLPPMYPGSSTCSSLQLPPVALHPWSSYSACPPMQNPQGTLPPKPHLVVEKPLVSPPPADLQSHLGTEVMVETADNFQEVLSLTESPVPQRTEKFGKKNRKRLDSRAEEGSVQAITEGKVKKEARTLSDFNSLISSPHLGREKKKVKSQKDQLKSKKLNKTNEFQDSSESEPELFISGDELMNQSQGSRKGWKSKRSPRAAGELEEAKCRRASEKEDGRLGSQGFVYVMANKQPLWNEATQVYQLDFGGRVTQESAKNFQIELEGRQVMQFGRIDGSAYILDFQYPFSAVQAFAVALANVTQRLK
UniProt Q9NRW7: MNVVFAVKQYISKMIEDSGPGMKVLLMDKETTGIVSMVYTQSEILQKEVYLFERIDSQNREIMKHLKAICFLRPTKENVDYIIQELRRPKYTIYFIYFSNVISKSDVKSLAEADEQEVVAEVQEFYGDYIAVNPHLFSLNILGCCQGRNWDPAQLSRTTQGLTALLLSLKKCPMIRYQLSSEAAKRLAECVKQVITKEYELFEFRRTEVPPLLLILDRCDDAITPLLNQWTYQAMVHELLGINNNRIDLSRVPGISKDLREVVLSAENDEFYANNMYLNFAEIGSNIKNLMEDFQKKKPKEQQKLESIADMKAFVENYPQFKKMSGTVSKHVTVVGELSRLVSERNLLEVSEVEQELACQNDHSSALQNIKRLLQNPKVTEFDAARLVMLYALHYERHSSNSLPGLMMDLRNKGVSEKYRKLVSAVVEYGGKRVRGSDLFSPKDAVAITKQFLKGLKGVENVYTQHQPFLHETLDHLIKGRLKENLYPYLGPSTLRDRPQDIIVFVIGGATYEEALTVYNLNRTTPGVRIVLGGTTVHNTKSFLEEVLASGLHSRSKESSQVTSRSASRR
UniProt Q9NWA0: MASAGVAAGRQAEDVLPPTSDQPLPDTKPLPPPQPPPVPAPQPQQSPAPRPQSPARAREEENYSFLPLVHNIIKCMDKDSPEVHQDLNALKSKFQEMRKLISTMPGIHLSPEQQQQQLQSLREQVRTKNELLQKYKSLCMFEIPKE
UniProt Q9NR56: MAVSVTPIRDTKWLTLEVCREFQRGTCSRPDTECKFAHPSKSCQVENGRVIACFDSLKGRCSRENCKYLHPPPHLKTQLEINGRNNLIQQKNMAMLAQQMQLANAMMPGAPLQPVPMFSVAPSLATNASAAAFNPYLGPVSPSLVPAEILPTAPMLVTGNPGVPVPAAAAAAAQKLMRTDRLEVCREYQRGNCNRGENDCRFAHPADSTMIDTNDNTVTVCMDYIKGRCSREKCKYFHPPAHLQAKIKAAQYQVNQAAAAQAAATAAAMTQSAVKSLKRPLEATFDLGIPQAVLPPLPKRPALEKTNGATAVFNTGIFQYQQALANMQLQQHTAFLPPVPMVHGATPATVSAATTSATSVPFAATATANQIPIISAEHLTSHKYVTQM
UniProt Q9NP77: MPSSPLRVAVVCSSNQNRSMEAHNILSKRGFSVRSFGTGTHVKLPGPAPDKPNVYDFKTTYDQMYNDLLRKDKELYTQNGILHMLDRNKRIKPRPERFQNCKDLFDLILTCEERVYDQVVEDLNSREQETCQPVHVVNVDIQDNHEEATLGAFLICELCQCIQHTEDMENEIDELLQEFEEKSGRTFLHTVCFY
UniProt Q9NWT1: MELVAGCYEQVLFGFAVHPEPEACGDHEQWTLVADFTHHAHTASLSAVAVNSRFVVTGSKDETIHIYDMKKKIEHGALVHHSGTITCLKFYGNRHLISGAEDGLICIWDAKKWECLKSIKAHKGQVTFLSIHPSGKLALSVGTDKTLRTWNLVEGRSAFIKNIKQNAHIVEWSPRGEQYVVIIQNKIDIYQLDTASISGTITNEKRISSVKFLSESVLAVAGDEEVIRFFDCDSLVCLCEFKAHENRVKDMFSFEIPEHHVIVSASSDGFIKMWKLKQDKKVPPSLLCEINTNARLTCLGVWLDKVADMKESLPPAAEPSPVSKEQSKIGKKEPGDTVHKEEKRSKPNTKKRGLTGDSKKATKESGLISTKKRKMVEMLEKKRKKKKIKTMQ
UniProt Q9NWF9: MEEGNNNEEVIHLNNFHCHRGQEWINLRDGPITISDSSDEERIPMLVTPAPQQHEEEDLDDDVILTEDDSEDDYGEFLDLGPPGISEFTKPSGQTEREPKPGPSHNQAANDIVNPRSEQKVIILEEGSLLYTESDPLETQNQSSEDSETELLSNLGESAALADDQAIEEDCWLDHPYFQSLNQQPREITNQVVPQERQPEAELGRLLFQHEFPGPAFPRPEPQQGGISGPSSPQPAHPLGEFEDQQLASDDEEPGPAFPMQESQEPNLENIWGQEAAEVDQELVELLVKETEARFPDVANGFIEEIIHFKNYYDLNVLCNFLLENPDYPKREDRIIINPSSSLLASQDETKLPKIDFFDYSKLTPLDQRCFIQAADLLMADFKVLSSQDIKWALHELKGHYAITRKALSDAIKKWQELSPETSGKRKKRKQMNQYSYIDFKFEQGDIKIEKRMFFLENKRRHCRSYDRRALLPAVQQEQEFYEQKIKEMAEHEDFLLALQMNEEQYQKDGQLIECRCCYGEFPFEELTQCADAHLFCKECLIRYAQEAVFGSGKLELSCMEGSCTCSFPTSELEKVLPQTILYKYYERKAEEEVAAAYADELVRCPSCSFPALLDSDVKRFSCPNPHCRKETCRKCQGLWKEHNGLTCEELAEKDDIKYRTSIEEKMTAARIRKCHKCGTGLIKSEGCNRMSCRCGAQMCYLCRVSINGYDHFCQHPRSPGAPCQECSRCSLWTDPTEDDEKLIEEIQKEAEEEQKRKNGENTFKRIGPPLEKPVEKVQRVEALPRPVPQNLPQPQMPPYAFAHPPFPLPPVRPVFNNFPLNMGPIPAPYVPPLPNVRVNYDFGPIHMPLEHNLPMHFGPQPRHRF
UniProt Q9NSI6, whole entry: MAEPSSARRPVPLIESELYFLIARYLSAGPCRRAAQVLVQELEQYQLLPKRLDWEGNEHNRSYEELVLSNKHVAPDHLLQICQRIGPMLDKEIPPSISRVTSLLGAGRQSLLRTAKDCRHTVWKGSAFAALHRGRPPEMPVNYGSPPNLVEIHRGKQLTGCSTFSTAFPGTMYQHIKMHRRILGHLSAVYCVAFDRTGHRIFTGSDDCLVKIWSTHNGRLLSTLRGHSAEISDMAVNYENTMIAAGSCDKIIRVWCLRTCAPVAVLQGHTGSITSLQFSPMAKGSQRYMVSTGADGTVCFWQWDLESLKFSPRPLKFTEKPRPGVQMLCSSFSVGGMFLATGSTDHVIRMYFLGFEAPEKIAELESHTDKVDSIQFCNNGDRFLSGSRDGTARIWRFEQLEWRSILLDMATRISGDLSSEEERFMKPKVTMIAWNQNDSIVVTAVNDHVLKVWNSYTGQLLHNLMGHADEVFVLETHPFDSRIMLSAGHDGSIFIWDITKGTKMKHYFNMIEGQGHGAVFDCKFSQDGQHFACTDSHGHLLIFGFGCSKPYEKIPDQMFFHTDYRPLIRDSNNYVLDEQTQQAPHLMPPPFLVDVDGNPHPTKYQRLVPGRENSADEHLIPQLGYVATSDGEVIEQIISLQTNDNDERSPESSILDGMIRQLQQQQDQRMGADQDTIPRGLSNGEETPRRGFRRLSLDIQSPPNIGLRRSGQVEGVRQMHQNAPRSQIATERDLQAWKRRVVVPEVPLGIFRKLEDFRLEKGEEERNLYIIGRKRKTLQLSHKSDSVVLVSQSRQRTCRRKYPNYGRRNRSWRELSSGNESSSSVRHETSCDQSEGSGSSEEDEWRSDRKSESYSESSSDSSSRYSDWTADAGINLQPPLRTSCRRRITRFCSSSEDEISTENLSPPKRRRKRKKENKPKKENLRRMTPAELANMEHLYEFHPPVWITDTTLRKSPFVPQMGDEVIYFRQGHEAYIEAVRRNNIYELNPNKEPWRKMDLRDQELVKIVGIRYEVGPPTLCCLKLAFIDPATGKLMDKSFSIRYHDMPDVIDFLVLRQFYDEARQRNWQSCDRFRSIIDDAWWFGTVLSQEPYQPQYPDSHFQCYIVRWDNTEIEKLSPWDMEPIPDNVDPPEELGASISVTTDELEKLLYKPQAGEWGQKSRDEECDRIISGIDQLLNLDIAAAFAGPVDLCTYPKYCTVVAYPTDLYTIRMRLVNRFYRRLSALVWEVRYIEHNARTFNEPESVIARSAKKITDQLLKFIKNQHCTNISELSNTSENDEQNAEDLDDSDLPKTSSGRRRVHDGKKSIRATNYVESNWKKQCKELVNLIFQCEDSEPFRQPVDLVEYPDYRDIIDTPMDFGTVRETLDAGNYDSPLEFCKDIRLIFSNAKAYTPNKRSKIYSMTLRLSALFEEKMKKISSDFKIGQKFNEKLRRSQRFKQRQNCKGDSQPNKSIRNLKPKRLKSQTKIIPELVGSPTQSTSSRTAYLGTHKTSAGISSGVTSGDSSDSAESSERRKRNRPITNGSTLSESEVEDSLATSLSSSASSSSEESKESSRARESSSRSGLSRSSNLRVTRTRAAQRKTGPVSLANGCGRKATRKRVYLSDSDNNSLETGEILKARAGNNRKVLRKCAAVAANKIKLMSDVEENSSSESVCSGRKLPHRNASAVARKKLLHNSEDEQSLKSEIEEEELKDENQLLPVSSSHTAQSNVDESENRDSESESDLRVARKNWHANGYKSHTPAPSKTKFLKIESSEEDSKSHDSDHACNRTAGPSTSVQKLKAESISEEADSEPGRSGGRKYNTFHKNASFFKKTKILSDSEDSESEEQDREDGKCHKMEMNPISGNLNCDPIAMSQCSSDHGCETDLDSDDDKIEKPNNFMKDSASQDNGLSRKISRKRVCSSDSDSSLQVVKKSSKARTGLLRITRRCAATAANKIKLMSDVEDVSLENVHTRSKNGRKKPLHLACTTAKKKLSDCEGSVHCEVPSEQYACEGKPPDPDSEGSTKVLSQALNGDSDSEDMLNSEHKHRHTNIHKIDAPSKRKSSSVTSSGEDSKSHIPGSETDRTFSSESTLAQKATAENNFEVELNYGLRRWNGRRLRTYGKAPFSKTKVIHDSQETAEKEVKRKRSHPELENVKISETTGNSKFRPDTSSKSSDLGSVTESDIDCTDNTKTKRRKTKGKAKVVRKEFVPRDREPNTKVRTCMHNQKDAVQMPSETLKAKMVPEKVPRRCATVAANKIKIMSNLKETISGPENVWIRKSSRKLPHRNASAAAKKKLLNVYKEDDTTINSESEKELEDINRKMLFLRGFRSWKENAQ
UniProt Q9NSK7: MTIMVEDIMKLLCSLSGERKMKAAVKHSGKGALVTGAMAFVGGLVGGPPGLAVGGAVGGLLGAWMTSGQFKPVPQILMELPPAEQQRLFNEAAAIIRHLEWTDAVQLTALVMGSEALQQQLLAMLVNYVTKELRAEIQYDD

The other results are listed elsewhere or left out. Most values lie at the level of the controls, where differences are scatter.

As to “MRPS18A (peptide sequence: MPVGSPLLR, peptide start residue: 174) (UniProt Q9NVS2)”, the log2 fold change is 0.0753.
Turning to “CTPS2 (peptide sequence: LQKICSIALVGKYTK, peptide start residue: 295) (UniProt Q9NRF8)”, the log2 fold change turned out to be 1.03.
Regarding “RIC8A (peptide sequence: LAELLVSVLEQGLPPSHR, peptide start residue: 46) (UniProt Q9NPQ8)”, the log2 fold change was determined as 0.144.
For the target “BIN3 (peptide sequence: MDAFNQEKVNQIQK, peptide start residue: 92) (UniProt Q9NQY0)”, the log2 fold change was -0.996.
Then “UniProt Q9NWM3 (peptide sequence: GGGGGTAAPQELNNSRPAR, peptide start residue: 22)”, with -0.142; and “UniProt Q9NRJ4 (peptide sequence: TAQTSGPNPLK, peptide start residue: 1139)”, with 0.415.
For “UniProt Q9NRP4 (peptide sequence: QFSISESMKPK, peptide start residue: 114)”, the log2 fold change was -0.286.
Then “ARMC1 (peptide sequence: AKTVVLHIDGLDDTSRR, peptide start residue: 142) (UniProt Q9NVT9)”, with 0.753; and “SDR39U1 (peptide sequence: WNETFQK, peptide start residue: 70) (UniProt Q9NRG7)”, with 0.347.
Then “UniProt Q9NRP2 (peptide sequence: LFNPPEESEK, peptide start residue: 70)”, with 0.155.
Regarding “NANS (peptide sequence: VGEPKGYPPEDIFNLVGK, peptide start residue: 316) (UniProt Q9NR45)”, the log2 fold change came to 0.346.
For the target “CISH (peptide sequence: MPEGTFLVR, peptide start residue: 99) (UniProt Q9NSE2)”, the log2 fold change is 0.246.
Then “VPS45 (peptide sequence: HSSNSLPGLMMDLR, peptide start residue: 398) (UniProt Q9NRW7)”, with -0.412; and “ASB6 (peptide sequence: IHESSPLDLASEEPERLPCLQR, peptide start residue: 135) (UniProt Q9NWX5)”, with -0.574; and “TMEM9B (peptide sequence: SRANVLNKVEYAQQR, peptide start residue: 164) (UniProt Q9NQ34)”, with -0.858.
Then “TXNRD2 (peptide sequence: GFDQQMSSMVIEHMASHGTR, peptide start residue: 255) (UniProt Q9NNW7)”, with -0.36.
Then “UniProt Q9NQ39 (peptide sequence: AMQSLKSR, peptide start residue: 48)”, with 0.921.
Consider “MED4 (peptide sequence: AASSSGEKEK, peptide start residue: 2) (UniProt Q9NPJ6)”, for which the log2 fold change came to 0.31.
Then “METTL5 (peptide sequence: LQQVDGFEKPK, peptide start residue: 13) (UniProt Q9NRN9)”, with 0.192.
Then “UBN1 (peptide sequence: MLEEEKDKEQR, peptide start residue: 478) (UniProt Q9NPG3)”, with -0.309; and “UniProt Q9NVA2 (peptide sequence: EAELKEAEKELHEK, peptide start residue: 353)”, with -0.119.
Take “UniProt Q9NQ31 (peptide sequence: YYSSVPEEGGATHVYR, peptide start residue: 103)”: the log2 fold change is -0.0456.
Then “MED9 (peptide sequence: SKFQEMR, peptide start residue: 92) (UniProt Q9NWA0)”, with 0.103; and “MBNL1 (peptide sequence: AVSVTPIRDTK, peptide start residue: 2) (UniProt Q9NR56)”, with -0.0655.
Then “SSU72 (peptide sequence: DKELYTQNGILHMLDR, peptide start residue: 72) (UniProt Q9NP77)”, with 0.169; and “IFT57 (peptide sequence: VKQEMEEK, peptide start residue: 356) (UniProt Q9NWB7)”, with 0.708; and “CHRAC1 (peptide sequence: MLKEEKR, peptide start residue: 106) (UniProt Q9NRG0)”, with 0.148.
Turning to “RANGRF (peptide sequence: AVHVESVQPLSLENLALR, peptide start residue: 79) (UniProt Q9HD47)”, the log2 fold change is 0.127.
Then “PAK1IP1 (peptide sequence: MVEMLEKK, peptide start residue: 375) (UniProt Q9NWT1)”, with -0.311; and “RNF216 (peptide sequence: MEEGNNNEEVIHLNNFHCHR, peptide start residue: 1) (UniProt Q9NWF9)”, with 0.537.
Then “TMEM106B (peptide sequence: NGLVNSEVHNEDGR, peptide start residue: 28) (UniProt Q9NUM4)”, with 0.232.
As for “UniProt Q9NVR5 (peptide sequence: REPAVAVAAAAPEESADR, peptide start residue: 355)”, the log2 fold change came to 0.48.
Take “TBC1D13 (peptide sequence: ILLNYLPLER, peptide start residue: 47) (UniProt Q9NVG8)”: the log2 fold change was -0.546.
Turning to “COPRS (peptide sequence: GTQSIPNDSPAR, peptide start residue: 58) (UniProt Q9NQ92)”, the log2 fold change came out at 0.0934.
As to “KIF15 (peptide sequence: LSLQFEEDKENSSK, peptide start residue: 916) (UniProt Q9NS87)”, the log2 fold change was 0.205.
Then “ASF1B (peptide sequence: FHINWDNNMDR, peptide start residue: 149) (UniProt Q9NVP2)”, with 0.208.
In the case of “AVEN (peptide sequence: EVNNESGESQR, peptide start residue: 127) (UniProt Q9NQS1)”, the log2 fold change was -0.321.
In the case of “UniProt Q9NPA0 (peptide sequence: AVVPGVKPQDWISAAR, peptide start residue: 51)”, the log2 fold change is -0.165.
“SAMSN1 (peptide sequence: DIKESHLIELNIENPDDRR, peptide start residue: 275) (UniProt Q9NSI8)”: the log2 fold change is -0.306.
Then “ANO10 (peptide sequence: LVTENLKEEPMESGKEK, peptide start residue: 642) (UniProt Q9NW15)”, with 0.162; and “UniProt Q9NR81 (peptide sequence: VQDFLQR, peptide start residue: 286)”, with 0.341; and “EIF2B3 (peptide sequence: SVIGSSCLIK, peptide start residue: 373) (UniProt Q9NR50)”, with 0.122.
Then “BRWD1 (peptide sequence: EPWRKMDLR, peptide start residue: 992) (UniProt Q9NSI6)”, with -0.483; and “DDX21 (peptide sequence: STYEQVDLIGK, peptide start residue: 392) (UniProt Q9NR30)”, with 0.106.
Then “PNO1 (peptide sequence: KIPVPANR, peptide start residue: 77) (UniProt Q9NRX1)”, with -0.0903.
Consider “RRAGD (peptide sequence: GLIDYNFHCFR, peptide start residue: 350) (UniProt Q9NQL2)”, for which the log2 fold change was 0.133.
Consider “UniProt Q9NS56 (peptide sequence: HLEGTNEVAQPSR, peptide start residue: 802)”, for which the log2 fold change turned out to be 0.235.
Then “PNPO (peptide sequence: GLPTGDSPLGPMTHR, peptide start residue: 235) (UniProt Q9NVS9)”, with -0.518; and “FAM118A (peptide sequence: KMSPRTGDAK, peptide start residue: 97) (UniProt Q9NWS6)”, with -0.391; and “C19orf12 (peptide sequence: LFNEAAAIIR, peptide start residue: 99) (UniProt Q9NSK7)”, with 0.0781.
Then “UniProt Q9NWY4 (peptide sequence: RRPGGEGPQCEK, peptide start residue: 8)”, with 0.236; and “PREB (peptide sequence: FGQVPDQPAGLR, peptide start residue: 252) (UniProt Q9HCU5)”, with -0.179.
Then “PIH1D1 (peptide sequence: RMQNSDFLR, peptide start residue: 131) (UniProt Q9NWS0)”, with -0.248; and “UniProt Q9NQW1 (peptide sequence: KLKELER, peptide start residue: 2)”, with 0.0816.
Consider “ZNF275 (peptide sequence: GVNGLAEHQR, peptide start residue: 276) (UniProt Q9NSD4)”, for which the log2 fold change was -0.232.
Then “POLE3 (peptide sequence: EALEAYRR, peptide start residue: 87) (UniProt Q9NRF9)”, with -0.153; and “UniProt Q9NW81 (peptide sequence: LGAAVAPEGNQKK, peptide start residue: 25)”, with 0.472.
Consider “UniProt Q9NVM9 (peptide sequence: AHINNSEK, peptide start residue: 542)”, for which the log2 fold change is -0.186.
Then “PRMT7 (peptide sequence: QVSSSAACHSR, peptide start residue: 255) (UniProt Q9NVM4)”, with -1.86; and “TBC1D23 (peptide sequence: NIIQGRPLPADLR, peptide start residue: 38) (UniProt Q9NUY8)”, with -0.314.
For “TBC1D22B (peptide sequence: NEEHHQDTYR, peptide start residue: 257) (UniProt Q9NU19)”, the log2 fold change was -0.378.
In the case of “ZDBF2 (peptide sequence: VDSVRNLKK, peptide start residue: 1795) (UniProt Q9HCK1)”, the log2 fold change was -0.0415.

These data come from the supplement of paper PMC12819154, “High-throughput peptide-centric local stability assay extends protein–ligand identification to membrane proteins, tissues and bacteria” (Nature Structural & Molecular Biology, 2025).
